Source: the supplement of paper PMC8728848
The other results are listed elsewhere or left out.

Assays:
Assay in all cases: glycan array binding signal (z-score within array); higher = stronger binding
Settings in all cases: glycan notation: IUPAC condensed, linker removed
Fuc(a1-2)Gal = target: Fuc(a1-2)Gal
In short: (§1)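 Negative Z-scores can be read as non-binding. The Z-score is calculated within each array and then averaged across arrays of one protein sequence at different concentrations or buffers and across linkers. Arrays, 3228 in all, were curated from the Consortium for Functional Glycomics database and kept only where the protein sequence was available.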

Fuc(a1-2)Gal(b1-3)GalNAc = target: Fuc(a1-2)Gal(b1-3)GalNAc
In short: as §1

[1] = target: Fuc(a1-2)Gal(b1-3)GalNAc(a1-3)[Fuc(a1-2)]Gal(b1-4)Glc
In short: as §1

[2] = target: Fuc(a1-2)Gal(b1-3)GalNAc(a1-3)[Fuc(a1-2)]Gal(b1-4)GlcNAc
In short: as §1

[3] = target: Fuc(a1-2)Gal(b1-3)GalNAc(b1-3)Gal
In short: as §1

[4] = target: Fuc(a1-2)Gal(b1-3)GalNAc(b1-3)Gal(a1-4)Gal(b1-4)Glc
In short: as §1

[5] = target: Fuc(a1-2)Gal(b1-3)GalNAc(b1-4)[Neu5Ac(a2-3)]Gal(b1-4)Glc
In short: as §1

Fuc(a1-2)Gal(b1-3)GlcNAc = target: Fuc(a1-2)Gal(b1-3)GlcNAc
In short: as §1

[6] = target: Fuc(a1-2)Gal(b1-3)GlcNAc(b1-2)Man(a1-3)[Fuc(a1-2)Gal(b1-3)GlcNAc(b1-2)Man(a1-6)]Man(b1-4)GlcNAc(b1-4)GlcNAc
In short: as §1

[7] = target: Fuc(a1-2)Gal(b1-3)GlcNAc(b1-3)Gal(b1-4)Glc
In short: as §1

[8] = target: Fuc(a1-2)Gal(b1-3)GlcNAc(b1-3)[Fuc(a1-3)[Gal(b1-4)]GlcNAc(b1-6)]Gal(b1-4)Glc
In short: as §1

[9] = target: Fuc(a1-2)Gal(b1-3)[Fuc(a1-4)]GlcNAc
In short: as §1

[10] = target: Fuc(a1-2)Gal(b1-3)[Fuc(a1-4)]GlcNAc(b1-2)Man(a1-3)[Fuc(a1-2)Gal(b1-3)[Fuc(a1-4)]GlcNAc(b1-2)Man(a1-6)]Man(b1-4)GlcNAc(b1-4)GlcNAc
In short: as §1

[11] = target: Fuc(a1-2)Gal(b1-3)[Fuc(a1-4)]GlcNAc(b1-3)[Fuc(a1-3)[Gal(b1-4)]GlcNAc(b1-6)]Gal(b1-4)Glc
In short: as §1

[12] = target: Fuc(a1-2)Gal(b1-3)[Fuc(a1-4)]GlcNAc(b1-3)[Gal(b1-4)GlcNAc(b1-6)]Gal(b1-4)Glc
In short: as §1

Fuc(a1-2)Gal(b1-4)Glc = target: Fuc(a1-2)Gal(b1-4)Glc
In short: as §1

Fuc(a1-2)Gal(b1-4)Glc6S = target: Fuc(a1-2)Gal(b1-4)Glc6S
In short: as §1

Fuc(a1-2)Gal(b1-4)GlcNAc = target: Fuc(a1-2)Gal(b1-4)GlcNAc
In short: as §1

[13] = target: Fuc(a1-2)Gal(b1-4)GlcNAc(b1-2)Man(a1-3)[Fuc(a1-2)Gal(b1-4)GlcNAc(b1-2)Man(a1-6)]Man(b1-4)GlcNAc(b1-4)GlcNAc
In short: as §1

[14] = target: Fuc(a1-2)Gal(b1-4)GlcNAc(b1-3)Gal(b1-4)GlcNAc
In short: as §1

[15] = target: Fuc(a1-2)Gal(b1-4)GlcNAc(b1-3)Gal(b1-4)GlcNAc(b1-3)Gal(b1-4)GlcNAc
In short: as §1

[16] = target: Fuc(a1-2)Gal(b1-4)GlcNAc(b1-3)GalNAc
In short: as §1

[17] = target: Fuc(a1-2)Gal(b1-4)GlcNAc6S
In short: as §1

[18] = target: Fuc(a1-2)Gal(b1-4)[Fuc(a1-3)]GlcNAc
In short: as §1

[19] = target: Fuc(a1-2)Gal(b1-4)[Fuc(a1-3)]GlcNAc(b1-2)Man(a1-3)[Fuc(a1-2)Gal(b1-4)[Fuc(a1-3)]GlcNAc(b1-2)Man(a1-6)]Man(b1-4)GlcNAc(b1-4)GlcNAc
In short: as §1

[20] = target: Fuc(a1-2)Gal(b1-4)[Fuc(a1-3)]GlcNAc(b1-3)Gal(b1-4)[Fuc(a1-3)]GlcNAc
In short: as §1

[21] = target: Fuc(a1-2)Gal(b1-4)[Fuc(a1-3)]GlcNAc(b1-3)Gal(b1-4)[Fuc(a1-3)]GlcNAc(b1-3)Gal(b1-4)[Fuc(a1-3)]GlcNAc
In short: as §1

Fuc(a1-2)Gal6S(b1-4)Glc = target: Fuc(a1-2)Gal6S(b1-4)Glc
In short: as §1

[22] = target: Fuc(a1-2)Gal6S(b1-4)Glc6S
In short: as §1

[23] = target: Fuc(a1-2)Gal6S(b1-4)GlcNAc
In short: as §1

B1: CREG (Mus musculus), O88668 (protein)
chain: MAARAPELARSLLAALLAPALVALLVSPASGRGGRDHGDWDVDRRLPPLPPREDGPRVARFVTHVSDWGSLATISTIKEVRGWPFADIISISDGPPGEGTGEPYMYLSPLQQAVSDLQENPEATLTMSLAQTVYCRNHGFDPQSPLCVHIMMSGTVTKVNKTEEDYARDSLFVRHPEMKHWPSSHNWFFAKLKISRIWVLDYFGGPKVVTPEEYFNVTLQ
glycan array binding signal (z-score) (Fuc(a1-2)Gal): -0.052 | glycan array binding signal (z-score) (Fuc(a1-2)Gal(b1-3)GalNAc): -0.385 | glycan array binding signal (z-score) [1]: -0.299 | glycan array binding signal (z-score) [2]: -0.28 | glycan array binding signal (z-score) [3]: 2.03 | glycan array binding signal (z-score) [4]: 1.18 | glycan array binding signal (z-score) [5]: -0.52 | glycan array binding signal (z-score) (Fuc(a1-2)Gal(b1-3)GlcNAc): -0.574 | glycan array binding signal (z-score) [6]: 1.52 | glycan array binding signal (z-score) [7]: 0.862 | glycan array binding signal (z-score) [8]: -0.51 | glycan array binding signal (z-score) [9]: 0.754 | glycan array binding signal (z-score) [10]: -0.82 | glycan array binding signal (z-score) [11]: -0.236 | glycan array binding signal (z-score) [12]: -1.42 | glycan array binding signal (z-score) (Fuc(a1-2)Gal(b1-4)Glc): 0.125 | glycan array binding signal (z-score) (Fuc(a1-2)Gal(b1-4)Glc6S): -0.17 | glycan array binding signal (z-score) (Fuc(a1-2)Gal(b1-4)GlcNAc): 0.041 | glycan array binding signal (z-score) [13]: 0.195 | glycan array binding signal (z-score) [14]: -0.464 | glycan array binding signal (z-score) [15]: -0.799 | glycan array binding signal (z-score) [16]: 0.824 | glycan array binding signal (z-score) [17]: -1 | glycan array binding signal (z-score) [18]: -0.328 | glycan array binding signal (z-score) [19]: 0.36 | glycan array binding signal (z-score) [20]: 0.152 | glycan array binding signal (z-score) [21]: 0.151 | glycan array binding signal (z-score) (Fuc(a1-2)Gal6S(b1-4)Glc): -0.047 | glycan array binding signal (z-score) [22]: -0.03 | glycan array binding signal (z-score) [23]: -0.138
